Source: US7902185B2, “Treatment of neurodegenerative diseases using proteasome modulators” (ALS Therapy Development Foundation, Inc., priority 2002, dated 2011)

Legend:
[1] = system: SOD1 G93A mouse model of ALS; assay: Survival in SOD1 G93A mouse model of ALS; settings: for Female (% effect on survival) / Female (Days) survival: females; for Female (% effect on survival) / Combined (% effect on survival) / Male (% effect on survival): vs control; for Combined (% effect on survival) / Combined (Days) survival: males+females; for Male (% effect on survival) / Male (Days) survival: males; for Combined (Days) survival / Female (Days) survival / Male (Days) survival: mean; for Female (Days) survival / Male (Days) survival: treated;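 for all read-outs here: heterozygous transgenic SOD1 G93A mice dosed from 60 days of age until death, checked daily for death, compared with vehicle-treated controls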
[2] = system: SOD1 G93A mouse model of ALS; assay: Neurological score in SOD1 G93A mouse model of ALS; assay type: in vivo; settings: Combined Riluzole studies (100% Litter matched)
Protocol: Neurological Scoring: From day 85 onward, neurological score was recorded on a 4-point scale: • 0=Normal reflex on the hind limbs (animal will splay its hind limbs when lifted by its tail) • 1=Abnormal reflex (Lack of splaying of hind limbs when animal is lifted by the tail). • 2=Abnormal reflex and visible evidence of paralysis • 3=Lack of reflex and total paralysis of hind limbs. • 4=Inability to right themselves when placed on the sides in 30 seconds or found dead. The animals are sacrificed at this stage if alive.

[3] = Combined Riluzole studies (100% Litter matched)
[4] = study Riluzole-1, 20 mg/Kg/day in drinking water
[5] = study Riluzole-2, 20 mg/Kg/day in drinking water

## Nc1nc2ccc(OC(F)(F)F)cc2s1 [Riluzole]
[1]; [3]
  Female (% effect on survival): 3%
  Combined (% effect on survival): 2%
  Male (% effect on survival): 1%
  Female (Days) survival: 137 days
  Male (Days) survival: 133 days
[1]; Combined Riluzole studies (100% Litter matched), treated N=33
  Combined (Days) survival: 135 days
[1]; study Riluzole-1
  Female (% effect on survival): 6%
  Combined (% effect on survival): 2%
  Male (% effect on survival): −1.5%
[1]; study Riluzole-1, treated N=20, 20 mg/Kg/day in drinking water
  Combined (Days) survival: 134 days
[1]; [4]
  Female (Days) survival: 138 days
  Male (Days) survival: 131 days
[1]; study Riluzole-2
  Female (% effect on survival): None
  Combined (% effect on survival): 2%
[1]; study Riluzole-2, treated N=15, 20 mg/Kg/day in drinking water
  Combined (Days) survival: 136 days
[1]; [5]
  Female (Days) survival: 136 days
  Male (Days) survival: 136 days
[2]
  Neurological score significance (Males & Females combined): no significant effect
